Laboratory results published in patent US20250382726A1.

Amino acid sequences for entries named in this document (tags omitted). A change or cut given only in a name is not applied to a line headed by its entry.
UniProt P25774: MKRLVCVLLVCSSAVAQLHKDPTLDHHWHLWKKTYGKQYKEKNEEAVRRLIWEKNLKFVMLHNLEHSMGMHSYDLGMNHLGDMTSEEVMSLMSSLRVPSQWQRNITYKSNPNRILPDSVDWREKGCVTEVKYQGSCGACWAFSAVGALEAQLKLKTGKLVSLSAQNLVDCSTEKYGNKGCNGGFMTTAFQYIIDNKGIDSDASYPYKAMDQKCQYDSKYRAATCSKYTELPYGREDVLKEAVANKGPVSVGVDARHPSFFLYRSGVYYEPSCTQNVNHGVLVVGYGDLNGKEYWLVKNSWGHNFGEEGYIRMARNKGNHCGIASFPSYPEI

Legend:
[1] = target: recombinant Cathepsin S protein (UniProt P25774); assay: ELISA, antibody coated on the plate, Cat S antigen 200 ng/ml, anti-his-HRP, signal relative to parental Fsn0503h = 100 %
[2] = target: recombinant Cathepsin S protein (UniProt P25774); assay: BLI (Octet), on-off rate map, kon (1/Ms) against kdis (1/s), both axes logarithmic

B1: Fsn0503h, humanised anti-Cathepsin S antibody (Fusion Antibodies) (antibody, V domains shown)
VH: EVQLVESGGGLVKPGGSLRLSCAASGFAFSSYDMSWVRQAPGKGLEWVAYITTGGVNTYYPDTVKGRFTISRDNAKNTLYLQMSSLKSEDTAVYYCARHSYFDYWGQGTTVTVSS
VL: DVVMTQSPLSLPVTLGQPASISCRSSQSLVHSNGNTYLHWYLQKPGQSPQLLIYKVSNRFSGVPDRFSGSGSGTDFTLKISRVEAEDVGVYYCSQTTHVPPTFGQGTKLEIK
- binding [1]: binds
- binding [2]: binds

These are yes or no findings as the source states them, for the method shown. A result given as binding can be weak or reduced; the word gives no strength. Where a sequence is shown, tags or fusion partners need not be part of it.
